From PubChem BioAssay AID720591 (Broad Institute, 2013)
Among all 1,200 compounds or so, about 60 (5%) were called active. Roughly 1% stayed inconclusive and do not appear here.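 The calls were made as follows: active = Decreasing signal and fitted IC50 at most twice the top valid tested dose; inconclusive = Bad fit or a level curve showing 30 to 70% inhibition; inactive = the rest.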 The list shows a part of the results. Entries with a potency or affinity are not part of this list.

Sequences of proteins named here, by UniProt entry; tags and fusion partners are left off. A change or cut given only in a name is not applied to a line headed by its entry.
UniProt Q9NXA8: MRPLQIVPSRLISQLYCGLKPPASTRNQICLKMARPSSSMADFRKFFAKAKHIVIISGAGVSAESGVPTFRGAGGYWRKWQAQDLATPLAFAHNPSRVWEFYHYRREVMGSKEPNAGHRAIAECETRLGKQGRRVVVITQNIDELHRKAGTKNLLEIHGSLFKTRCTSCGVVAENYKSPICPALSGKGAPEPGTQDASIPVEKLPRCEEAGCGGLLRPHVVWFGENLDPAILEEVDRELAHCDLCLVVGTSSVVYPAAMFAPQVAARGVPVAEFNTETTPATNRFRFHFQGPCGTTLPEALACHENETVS

molecular target: NAD-dependent protein deacylase sirtuin-5, mitochondrial (Homo sapiens) (UniProt Q9NXA8); assay: SIRT5 desuccinylase inhibitors, dose response, biochemical, fluorescence imaging, cherry-pick, set 5 (AID 720591); settings: Purified SirT5, succinyl-peptide AMC, trypsin-coupled fluorescence; at 15 µM (top of the series) unless noted;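 also: 0% = median of neutral control wells and -100% = median of positive control wells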

Activity change, negative = inhibition, inactive:
COc1ccccc1Cc1c(-c2cccc(Br)c2)nc2c(C)cc(Br)cn12 19.3%, C[C@H](CO)N1C[C@H](C)[C@@H](CN(C)CC2CCCCC2)Oc2c(NC(=O)Cc3ccccc3)cccc2C1=O 9.88%, Cc1c(C(=O)N2CCOCC2)c(S(=O)(=O)Nc2ccccc2)c(C)n1C -2.37%, Cc1cccc(-c2noc(CNC(=O)c3ccco3)n2)c1 8.66%, CCOc1ccccc1NC(=O)COC(=O)C1CC(=O)N(c2c(C)cccc2C)C1 (configuration not stated) 21.8%, COc1ccc(OC)c2c1cc(C(=O)N[C@H](C(=O)N1CCC(C(=O)O)CC1)C(C)C)n2C 4.85%, CNC(=O)NC(=O)CSc1nnc(-c2ccco2)n1-c1ccccc1 -7.81%, Cc1c(C(=O)c2ccccc2)c2ccccn2c1CCC#N 16.4%, COC(=O)[C@]1(C)N[C@H](c2ccc(SC3CCCCC3)c(OC)c2)[C@@H]2C(=O)N(C)C(=O)[C@@H]21 -9.95%, COc1cc(C(=O)Nc2ccc(C)cc2C(NCC(=O)NN)c2ccccc2)cc(OC)c1OC (configuration not stated) -16.5%, O=C(COC(=O)CC1CC2CCC1C2)NCc1ccccc1 (configuration not stated) 15.9%, O=C(Nc1ccccc1C(=O)O)c1cc(S(=O)(=O)Nc2ccccc2)ccc1Cl 15.5%, Cc1ccccc1N(C(=O)CS(=O)CC(=O)Nc1ccc(F)cc1)C(C)C(=O)NC(C)(C)C (configuration not stated) -31.5%, Cc1nn(CC(=O)N(C)C)c(=O)c2ccccc12 -8.69%, CN1CCN(C(=O)C2CCN(c3ncc(C(F)(F)F)cc3Cl)CC2)CC1 2.29%, CC1(C(=O)NS(=O)(=O)c2ccccc2Cl)CCN1C(=O)Cc1cccc2ccccc12 (configuration not stated) 31.4%, O=C(CCC1CCCN(Cc2cccc3c2OCO3)C1)NCc1ccc(F)c(F)c1 (configuration not stated) -23.1%, COc1cc(CCC(=O)N2CCN(c3ccccc3)CC2)cc(OC)c1OC 7.87%, COc1cc(C(=O)NCCCc2nc3ccccc3n2Cc2cc(C)ccc2C)cc(OC)c1OC 9.81%, CC1CC(C)CN(S(=O)(=O)c2cc3c4c(c2)C(C)C(=O)N4CCC3)C1 (configuration not stated) -16.5%, COC(=O)c1ccc(-c2noc(CN3CCCC(CNC(C)=O)C3)n2)cc1 (configuration not stated) 36.6%, Cc1cc(F)ccc1NC(=O)C1CSC2(C)CCC(=O)N12 (configuration not stated) 16.9%, Cc1cc(N)n(-c2ccc(S(=O)(=O)c3ccc(C(C)C)cc3)cc2)n1 -33.2%, C[C@]1(C(=O)NCc2cc(F)cc(C(F)(F)F)c2)C=C[C@@H](Cc2ccccc2)N1C(=O)c1ccccc1 18.6%, Cc1cccc(N2CCN(C(=O)COc3ccc4c(C)cc(=O)oc4c3C)CC2)c1C -12.8%, CCCc1c(C)nc2ccccc2c1SCCC#N -30.4%, C[C@@H]1CN([C@H](C)CO)S(=O)(=O)c2ccc(C#Cc3ccccc3F)cc2O[C@@H]1CN(C)C(=O)Cc1ccccc1 -7.51%, CC1CCN(S(=O)(=O)c2cc3c4c(c2)C(C)C(=O)N4CCC3)CC1 (configuration not stated) -16.9%, COc1ccc(CC(=O)NCC2CCCN(Cc3ccc(OC(F)(F)F)cc3)C2)cc1 (configuration not stated) -23.7%, O=C(NCc1ccc(F)cc1)c1cccnc1C(=O)O 8.78%, Cc1ccccc1OCC(=O)NCCNC(=O)c1ccccn1 -7.2%, CCN(c1ccccc1)S(=O)(=O)c1nnc(NC(=O)C(C)(C)C)s1 -1.58%, COc1ccc(C(CNC(=O)c2cccc(S(=O)(=O)N3CCCCC3)c2)N2CCCC2)cc1 (configuration not stated) -22.6%, COc1ccc(/C=C/c2nc3ccccc3c(=O)n2-c2cccc(C(=O)O)c2)cc1 9.63%, C=CC(=O)N(CCC)C(c1ccccc1)c1ccccc1OC (configuration not stated) -4.06%, CCOC(=O)CCCCCC(=O)Nc1ccc2c(c1)C(=O)N([C@H](C)CO)C[C@@H](C)[C@@H](CN(C)S(=O)(=O)c1ccc(C)cc1)OCCCC[C@H](C)O2 3.87%, Cn1cnc(CCNC(=O)C[C@H]2CC[C@@H]3[C@H](COC[C@H](O)CN3C(=O)C3CCCC3)O2)c1 -26.2%, COc1ccc(-c2[nH]ncc2CN(CCO)CC23CC4CC(CC(C4)C2)C3)c(OC)c1 -9.43%, COC(=O)c1ccc(C)c(NC(=O)CSc2sc3c(O)cc(=O)[nH]c3c2C#N)c1 -17%, COc1cccc(NC(=O)c2ccccc2)c1 -3.36%, Cc1cccc(N2CCN(C(=O)c3ccc4nc[nH]c4c3)CC2)c1C -1.76%, CC(=O)C[C@@H](O)CC(=O)[C@@H]1OC(=O)CCCCC/C=C/Cc2ccccc21 17.8%, CC1CCN(C(=O)CN(c2cccc(F)c2)S(C)(=O)=O)CC1 14.6%, CCC(C)C(CO)NCCCn1cnc2c(SC)ncnc21 (configuration not stated) 4.95%, CC(c1ccccc1)n1cnc2ccccc2c1=O (configuration not stated) -16.7%, CC(C)c1ccc2[nH]c3c(c2c1)[C@@H]1CCN2C(=O)CCC[C@H](C3)[C@H]12 -8.44%, COc1cccc(CN(CCC(C)C)S(=O)(=O)c2cc(Br)ccc2Br)c1 -21.5%, COCCNCC(=O)C12CC3CC(CC(C3)C1)C2 -30.6%, CCOC(=O)N1CCN(C(=O)C2CCC(=O)N(Cc3cccc(C(F)(F)F)c3)C2)CC1 (configuration not stated) 25.2%, CCOCCCNC(=O)C(c1ccc(Cl)cc1)N(Cc1cccs1)C(=O)c1ccccn1 (configuration not stated) 30.2%, O=C(Cc1ccc(Cl)cc1Cl)Nc1cccc(S(=O)(=O)Nc2ccccc2F)c1 -5.24%, CCn1c(=O)c(C(=O)CN2CCN(S(=O)(=O)c3ccc(C)cc3C)CC2)c(N)n(Cc2ccccc2)c1=O -34.5%, COc1ccc(NC(=O)CN2CCN(C(=O)C3CCCO3)CC2)c(OC)c1 (configuration not stated) 12.7%, O=C(COC(=O)c1ccc(O)cc1O)c1ccc2c(c1)OCCO2 -0.843%, Cc1ccc(-n2cc(CN3CCN(Cc4nccn4C)CC3)c(-c3cccc(C)c3)n2)cc1 9.65%, CN(C)CCN1CCN(C2CN(Cc3cn(Cc4ccccc4C(F)(F)F)nn3)S(=O)(=O)C2)CC1 (configuration not stated) -25.3%, COc1cc(Cl)c(CN2CCCC(CO)(Cc3ccccc3)C2)cc1OC (configuration not stated) -30.4%, COC(=O)CC1=C(C)C(=O)CC2C(C)(C)CCCC12C (configuration not stated) 8.94%, Cc1cccc(OC(=O)Nc2ccc(C(=O)O)c(O)c2)c1 -32.6%, CCC(C)(C)NC(=O)C(c1ccc(OC)cc1)N(Cc1ccco1)C(=O)CCC(=O)Nc1cc(C)on1 (configuration not stated) -28.7%, Cc1ccc(F)cc1NC(=O)CCC(=O)c1cccs1 2.04%, O=C(CCNS(=O)(=O)c1ccc(Br)s1)NC1CCCC1 10.6%, Cc1cc(Br)ccc1SCC(=O)OC/C(O)=C(\C#N)c1nc2ccccc2[nH]1 -24.9%, Cc1csc(NC(=O)c2ccc(S(C)(=O)=O)cc2)n1 10.2%, C[C@H](CO)N1C[C@H](C)[C@@H](CN(C)S(C)(=O)=O)Oc2ccc(NC(=O)CCN3CCOCC3)cc2C1=O -34%, CCOC(=O)C(Cc1ccc(NC(C)=O)cc1)N1C(=O)c2ccccc2C1=O (configuration not stated) -8.71%, CC(Oc1ccccc1)C(=O)Nc1nnc(C2CCCCC2)s1 (configuration not stated) -30%, COc1ccc(-n2c(SCC(N)=O)nnc2-c2ccco2)cc1 -23.9%, Cc1ccc2nc(-c3ccccc3)c(Cc3cccc(Cl)c3)n2c1 -3.52%, Fc1cccc(F)c1-c1nc(-c2ccncc2)no1 11.2%, C/C=C/c1cccc(-c2nc(C(=O)NC3CCC3)cc3c2[C@@H](CCO)N(S(=O)C(C)(C)C)C3)c1 (some centres not stated) 9.99%, CCOC(=O)C1(C)CCN1C(=O)c1cccc(Cl)c1 (configuration not stated) -3.12%, Cc1ccc(-n2cc(CN(C)Cc3nccn3C)c(-c3ccc(F)cc3)n2)cc1 -17.1%, COc1cc(C)c(CN2CCN(CC(=O)Nc3ccccc3C(=O)NC3CC3)CC2)cc1OC -25.6%, COc1ccc(CNC(=O)CN2C(=O)C3C4C=CC(C4)C3C2=O)cc1 (configuration not stated) -8.78%, COc1ccc(N2CCN(C(=O)CN(C)S(=O)(=O)c3cc(C)ccc3OC)CC2)cc1 -6.06%, COc1ccc(C(=O)Nc2cccc3cccnc23)cc1OC -26.1%, CCOc1ccccc1NC(=O)CN1CCN(C(=O)C2CCCO2)CC1 (configuration not stated) 4.02%, NC(=O)Cn1c(=O)oc2ccccc21 -24%, CC1CCCN(S(=O)(=O)c2cc3c4c(c2)C(C)C(=O)N4CCC3)C1 (configuration not stated) 23.1%, COc1ccc(CN(C(=O)c2ccco2)c2ccc(C)cc2)cc1OC -33.2%, CC1(C)CN(c2ccccc2)N(C(=O)c2ccc(F)cc2)C1=O -31.2%, COc1ccc(Nc2c(-c3ccc(C)cc3)nc3cnccn23)cc1 -5.55%, CNCc1cc(Br)c(OCC(=O)Nc2ccccc2OC)c(OC)c1 12.6%, Cc1cccc(-n2cc(CN3CCN(Cc4nccn4C)CC3)c(-c3cccc(F)c3)n2)c1 -20.1%, Cc1ccc(NC(=O)c2ccc3c(c2)CCN3S(C)(=O)=O)cc1 11.9%, O=S(=O)(CCc1ccncc1)c1ccc(Cl)cc1 7.83%
